Measurements published in patent publication US6410597B1, “Hydroxyalkyl amide analogs of ceramide” (Virginia Commonwealth University, priority 2000, dated 2002).
Some of these results come from one statement about several compounds together.

Test system: NG108-15 or F-11 neuroblastoma tumors
Test: In vivo tumor model in athymic mice
Parameters: species or system athymic NU/NU mice
Description: A total of 1×10^6 NG108-15 or F-11 cells in 200 μl of phosphate buffered saline (PBS) was subcutaneously injected into each side of athymic NU/NU mice (Harlan) for generation of an in vivo brain tumor model in mouse skin. The resulting tumors were treated either intraperitoneally or by direct intratumor injection of ceramic analogs. Tumor growth rates and treatment results were the same within experimental error regardless of whether NG108-15 or F-11 cells were used.
Tumor growth was monitored by caliper measurement. The tumor volume was calculated by the formula: tumor size [mm^3]=(tumor width [mm])^2×tumor length [mm]. […]
The intratumoral administration of ceramic analogs was initiated when tumor size was 30-50 mm^3 and consisted of daily injections of a 10-fold concentrated analog solution prepared as described above for S16 or of 2 mM B16 in 0.9% sodium chloride. The final concentration was calculated to be 200 μM when applied in a volume of 10% of the tumor size. Tumor volume was measured and calculated as described above. […]
FIG. 9. […] The tumor volume was determined by caliper measurement and was about 4 ml for the mouse on the left side (untreated for 10 days) and 2 ml for the mouse on the right side (treated for 14 days).

SMILES | tumor size relative to untreated control mice (intratumoral injection) | tumor size relative to untreated control mice (intraperitoneal injection)
CCCCCCCCCCCCCCCC(=O)N(CCO)CCO [B16, N,N-bis(2-hydroxyethyl) palmitamide] | less than 50% | 
CCCCCCCC/C=C\CCCCCCCC(=O)NC(CO)CO [S18, N-oleoyl serinol] |  | less than 50%
